PubChem BioAssay AID1259405, NCATS – 2018

Test: 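Mouse-designed siRNAs used to find CHO productivity engineering targets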 (primary screen)
Cells: Chinese hamster CHO-K1 ovary cells with stable secreted eGFP expression
Reagents: single siRNA against mouse genes, 0.8 pmol siRNA per well (2 µl of 400 nM stock)
Timing: 3 days
Read-out: 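Per-well intracellular GFP measured by laser scanning cytometry, plus viability from ATP luminescence, each relative to plate median of non-targeting control wells, in %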
Reading the numbers: GFP, % of control: higher = more GFP per well, higher productivity; viability (ATP), % of control: higher = more viable cells (more ATP)
Call rule: 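Called active when intracellular GFP, relative to negative control, is at or above 120%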
Shown is a random part of about 50,000 reagents. Of all reagents, about 4,000 (8%) were called active. 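Mouse siRNA library applied to hamster cells; one well for each siRNA.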 Unmarked entries are inactive. The numbers tell different reagents against one gene apart.

gene	reagent	GFP, % of control	viability (ATP), % of control
Zfp763	1	44.3	54.3
Zfp763	2	70.9	66.9
Zfp763	3	86	78.4
Adss2	1	81.3	89.8
Adss2	2	109	109
Adss2	3	107	101
C130023O10Rik	1	41.1	74.8
C130023O10Rik	2	70.4	81.2
C130023O10Rik	3	172 (active)	119
Aqp2	1	84.5	54.5
Aqp2	2	53.2	55.1
Aqp2	3	93.1	60.5
Uba7	1	62.6	72.3
Uba7	2	57.1	81.8
Uba7	3	126 (active)	113
Pyy	1	62.2	45.7
Pyy	2	75.8	67.6
Pyy	3	74.3	76.1
Acsl5	1	71.5	70.3
Acsl5	2	101	98.9
Acsl5	3	82.2	95.1
Myb	1	65.3	60.4
Myb	2	53.4	49.7
Myb	3	84.8	97
Msh2	1	88.6	80
Msh2	2	115	107
Msh2	3	79.7	87.7
Mob1b	1	55.7	81.8
Mob1b	2	97	101
Cstb	1	66	52.8
Cstb	2	82	45.5
Cstb	3	97.1	87.3
Mx1	1	69.5	59.2
Mx1	2	44.9	33.3
Mx1	3	75.7	70.1
